In brackets after ≈: the same amount, converted by molar mass.
Test: physchem
Conditions: buffer

## CCN(c1cc(-c2ccc(CN3CCOCC3)cc2)cc(C(=O)NCc2c(C)cc(C)[nH]c2=O)c1C)C1CCOCC1 [TAZEMETOSTAT]
  solubility: 3 µg/mL (≈ 5.24 µM)

Source: ChEMBL document CHEMBL5120864, “Targeting Enhancer of Zeste Homolog 2 for the Treatment of Hematological Malignancies and Solid Tumors: Candidate Structure-Activity Relationships Insights and Evolution Prospects” (J Med Chem, 2022)
